According to publication PMC9692295:
Results are given in words; binding and its absence hold for the method and conditions named. In cells and extracts the contact can be indirect. These calls come from enrichment with a bait or labelling near it, and not all partners need be listed. Where a sequence is shown, tags or fusion partners need not be part of it.

Amino acid sequences for entries named in this document (tags omitted).
UniProt O60826: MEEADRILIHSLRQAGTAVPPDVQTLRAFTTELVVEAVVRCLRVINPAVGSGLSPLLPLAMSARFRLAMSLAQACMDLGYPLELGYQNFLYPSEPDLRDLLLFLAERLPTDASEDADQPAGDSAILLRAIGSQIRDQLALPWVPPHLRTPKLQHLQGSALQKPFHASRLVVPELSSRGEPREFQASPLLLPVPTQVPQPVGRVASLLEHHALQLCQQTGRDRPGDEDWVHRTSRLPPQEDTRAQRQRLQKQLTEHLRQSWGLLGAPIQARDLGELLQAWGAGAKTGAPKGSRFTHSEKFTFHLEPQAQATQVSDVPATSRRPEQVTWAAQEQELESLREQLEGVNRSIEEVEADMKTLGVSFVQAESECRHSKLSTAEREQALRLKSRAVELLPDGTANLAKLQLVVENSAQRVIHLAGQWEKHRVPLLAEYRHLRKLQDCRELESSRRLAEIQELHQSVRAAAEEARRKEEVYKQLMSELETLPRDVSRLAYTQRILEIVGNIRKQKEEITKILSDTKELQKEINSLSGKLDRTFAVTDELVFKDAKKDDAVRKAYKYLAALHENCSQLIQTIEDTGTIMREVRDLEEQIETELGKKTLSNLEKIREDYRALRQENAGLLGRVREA
UniProt Q13561: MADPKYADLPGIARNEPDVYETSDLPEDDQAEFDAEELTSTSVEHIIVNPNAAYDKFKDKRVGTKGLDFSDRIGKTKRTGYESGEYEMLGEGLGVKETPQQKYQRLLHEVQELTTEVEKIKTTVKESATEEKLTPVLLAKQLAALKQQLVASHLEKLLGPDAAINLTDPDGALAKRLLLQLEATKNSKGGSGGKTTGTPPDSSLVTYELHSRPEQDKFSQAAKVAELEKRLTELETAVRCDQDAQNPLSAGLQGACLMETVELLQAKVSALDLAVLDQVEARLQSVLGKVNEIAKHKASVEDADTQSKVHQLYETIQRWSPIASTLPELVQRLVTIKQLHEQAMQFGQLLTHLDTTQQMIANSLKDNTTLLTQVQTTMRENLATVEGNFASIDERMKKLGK
UniProt Q9UJW0: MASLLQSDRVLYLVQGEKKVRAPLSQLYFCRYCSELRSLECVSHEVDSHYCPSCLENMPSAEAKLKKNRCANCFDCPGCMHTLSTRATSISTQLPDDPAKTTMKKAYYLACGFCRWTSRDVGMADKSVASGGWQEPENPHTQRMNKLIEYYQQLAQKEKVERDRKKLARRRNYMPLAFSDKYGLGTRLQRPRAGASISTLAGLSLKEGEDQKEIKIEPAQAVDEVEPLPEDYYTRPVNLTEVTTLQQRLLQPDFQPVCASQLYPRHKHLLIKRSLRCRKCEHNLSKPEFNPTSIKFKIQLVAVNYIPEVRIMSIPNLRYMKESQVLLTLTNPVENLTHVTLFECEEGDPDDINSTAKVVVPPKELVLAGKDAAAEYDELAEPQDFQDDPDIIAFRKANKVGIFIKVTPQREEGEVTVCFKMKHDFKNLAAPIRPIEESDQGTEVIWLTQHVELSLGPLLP
UniProt P09429: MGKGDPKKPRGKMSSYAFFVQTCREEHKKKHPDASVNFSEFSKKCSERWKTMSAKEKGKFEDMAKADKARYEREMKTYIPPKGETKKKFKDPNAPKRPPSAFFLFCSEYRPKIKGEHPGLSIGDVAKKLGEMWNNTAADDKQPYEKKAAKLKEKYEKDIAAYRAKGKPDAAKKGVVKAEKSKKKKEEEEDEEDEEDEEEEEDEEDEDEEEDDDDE

How the values were obtained:
[1] = molecular target: T1, P_FULL-BirA*Flag of BoDV-1 (C-terminal BirA* tagged full-length phosphoprotein) (Borna disease virus 1 (BoDV-1)) (UniProt P0C798); assay: proximity labelling
T1 sequence: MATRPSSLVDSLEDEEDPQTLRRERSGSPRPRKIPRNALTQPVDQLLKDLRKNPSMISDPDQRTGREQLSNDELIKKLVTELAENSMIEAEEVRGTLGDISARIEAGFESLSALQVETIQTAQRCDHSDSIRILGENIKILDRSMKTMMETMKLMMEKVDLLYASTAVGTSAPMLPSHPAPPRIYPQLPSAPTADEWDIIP

[2] = molecular target: T2, FlagBirA*-P_FULL of BoDV-1 (N-terminal BirA* tagged full-length phosphoprotein) (Borna disease virus 1 (BoDV-1)) (UniProt P0C798); assay: proximity labelling
T2 sequence: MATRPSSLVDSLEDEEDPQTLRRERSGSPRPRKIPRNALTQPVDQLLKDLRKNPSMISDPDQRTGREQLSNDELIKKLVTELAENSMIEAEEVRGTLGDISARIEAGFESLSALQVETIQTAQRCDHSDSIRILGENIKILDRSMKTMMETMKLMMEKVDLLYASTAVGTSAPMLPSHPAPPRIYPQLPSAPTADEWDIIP

With CCDC22 (from UniProt O60826 1-627) the binding [1] was “binds”.

For DCTN2 (from UniProt Q13561 1-401), the binding [2] was “binds”.

In the case of DCTN4 (from UniProt Q9UJW0 1-460), the binding [2] is reported as “binds”.

For HMGB1 (from UniProt P09429 1-215), the binding [2] was “binds”.

B1: HMGB2 (protein, UniProt P26583 1-209)
chain: MGKGDPNKPRGKMSSYAFFVQTCREEHKKKHPDSSVNFAEFSKKCSERWKTMSAKEKSKFEDMAKSDKARYDREMKNYVPPKGDKKGKKKDPNAPKRPPSAFFLFCSEHRPKIKSEHPGLSIGDTAKKLGEMWSEQSAKDKQPYEQKAAKLKEKYEKDIAAYRAKGKSEAGKKGPGRPTGSKKKNEPEDEEEEEEEEDEDEEEEDEDEE
In the case of B1, the binding [2] is reported as “binds”.
